The other results are listed elsewhere or left out.
Experiments:
Assay in all cases: log2 fold change, soluble protein after heating vs DMSO (PISA); higher = thermal stabilisation; K562 cells, 10 uM, 30 min; active = over 0.2 and 3.5 SD of the protein, either way, in both replicates (recomputed)
IRAK-1-4 Inhibitor I = compound: C1COCCN1CCN2C3=CC=CC=C3N=C2NC(=O)C4=CC(=CC=C4)[N+](=O)[O-] [IRAK-1-4 Inhibitor I]
In short: (§1)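 Thermal stability values are relative to control samples and come from duplicates. They are expressed as log2 fold changes. For measurement, K562 cells (2×10^6 cells/mL) received 10 μM compound for 30 min, and aliquots were heated for 3 min over 48°C-58°C, pooled, and extracted at 4°C in PBS with 0.5% NP-40. Soluble protein, the supernatant after 21,000xg for 90 min, was quantified by TMTpro 16plex LC-MS/MS with equalised channel sums.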

Chains of the proteins cited; added tags and fusions are not shown. Lines headed by an entry give the natural chain unless they say otherwise; changes in a name come on top.
UniProt P11498: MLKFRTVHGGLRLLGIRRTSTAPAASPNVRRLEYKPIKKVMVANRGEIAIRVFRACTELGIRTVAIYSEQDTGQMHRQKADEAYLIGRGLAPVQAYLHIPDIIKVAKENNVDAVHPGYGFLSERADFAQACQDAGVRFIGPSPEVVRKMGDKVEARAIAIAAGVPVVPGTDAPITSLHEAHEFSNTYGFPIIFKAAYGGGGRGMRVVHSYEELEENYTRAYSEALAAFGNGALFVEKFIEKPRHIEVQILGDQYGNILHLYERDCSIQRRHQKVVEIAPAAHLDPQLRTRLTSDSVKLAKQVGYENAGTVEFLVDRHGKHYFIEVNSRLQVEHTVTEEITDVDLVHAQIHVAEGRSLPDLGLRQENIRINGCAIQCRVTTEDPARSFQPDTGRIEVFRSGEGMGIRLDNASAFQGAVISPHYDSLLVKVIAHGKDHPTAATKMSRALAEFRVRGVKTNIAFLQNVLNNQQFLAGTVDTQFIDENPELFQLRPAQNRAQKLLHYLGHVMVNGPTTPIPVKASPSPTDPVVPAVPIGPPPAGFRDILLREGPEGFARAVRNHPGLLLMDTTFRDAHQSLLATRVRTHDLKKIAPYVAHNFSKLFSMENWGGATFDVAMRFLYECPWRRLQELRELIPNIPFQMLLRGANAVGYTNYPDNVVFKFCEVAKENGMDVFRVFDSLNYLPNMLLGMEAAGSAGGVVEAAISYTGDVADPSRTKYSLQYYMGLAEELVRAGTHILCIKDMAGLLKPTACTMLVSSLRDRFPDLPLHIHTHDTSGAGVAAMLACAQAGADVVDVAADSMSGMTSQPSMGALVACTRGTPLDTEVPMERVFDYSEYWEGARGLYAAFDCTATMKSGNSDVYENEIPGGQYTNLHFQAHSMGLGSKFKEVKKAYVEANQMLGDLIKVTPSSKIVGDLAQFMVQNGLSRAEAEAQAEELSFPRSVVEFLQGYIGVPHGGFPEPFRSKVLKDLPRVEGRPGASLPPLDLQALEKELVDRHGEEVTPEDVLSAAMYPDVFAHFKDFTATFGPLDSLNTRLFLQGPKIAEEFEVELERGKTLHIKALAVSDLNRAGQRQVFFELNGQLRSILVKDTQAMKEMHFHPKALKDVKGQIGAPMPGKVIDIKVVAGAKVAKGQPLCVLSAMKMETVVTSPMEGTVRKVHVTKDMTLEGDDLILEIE
UniProt Q9NTI5: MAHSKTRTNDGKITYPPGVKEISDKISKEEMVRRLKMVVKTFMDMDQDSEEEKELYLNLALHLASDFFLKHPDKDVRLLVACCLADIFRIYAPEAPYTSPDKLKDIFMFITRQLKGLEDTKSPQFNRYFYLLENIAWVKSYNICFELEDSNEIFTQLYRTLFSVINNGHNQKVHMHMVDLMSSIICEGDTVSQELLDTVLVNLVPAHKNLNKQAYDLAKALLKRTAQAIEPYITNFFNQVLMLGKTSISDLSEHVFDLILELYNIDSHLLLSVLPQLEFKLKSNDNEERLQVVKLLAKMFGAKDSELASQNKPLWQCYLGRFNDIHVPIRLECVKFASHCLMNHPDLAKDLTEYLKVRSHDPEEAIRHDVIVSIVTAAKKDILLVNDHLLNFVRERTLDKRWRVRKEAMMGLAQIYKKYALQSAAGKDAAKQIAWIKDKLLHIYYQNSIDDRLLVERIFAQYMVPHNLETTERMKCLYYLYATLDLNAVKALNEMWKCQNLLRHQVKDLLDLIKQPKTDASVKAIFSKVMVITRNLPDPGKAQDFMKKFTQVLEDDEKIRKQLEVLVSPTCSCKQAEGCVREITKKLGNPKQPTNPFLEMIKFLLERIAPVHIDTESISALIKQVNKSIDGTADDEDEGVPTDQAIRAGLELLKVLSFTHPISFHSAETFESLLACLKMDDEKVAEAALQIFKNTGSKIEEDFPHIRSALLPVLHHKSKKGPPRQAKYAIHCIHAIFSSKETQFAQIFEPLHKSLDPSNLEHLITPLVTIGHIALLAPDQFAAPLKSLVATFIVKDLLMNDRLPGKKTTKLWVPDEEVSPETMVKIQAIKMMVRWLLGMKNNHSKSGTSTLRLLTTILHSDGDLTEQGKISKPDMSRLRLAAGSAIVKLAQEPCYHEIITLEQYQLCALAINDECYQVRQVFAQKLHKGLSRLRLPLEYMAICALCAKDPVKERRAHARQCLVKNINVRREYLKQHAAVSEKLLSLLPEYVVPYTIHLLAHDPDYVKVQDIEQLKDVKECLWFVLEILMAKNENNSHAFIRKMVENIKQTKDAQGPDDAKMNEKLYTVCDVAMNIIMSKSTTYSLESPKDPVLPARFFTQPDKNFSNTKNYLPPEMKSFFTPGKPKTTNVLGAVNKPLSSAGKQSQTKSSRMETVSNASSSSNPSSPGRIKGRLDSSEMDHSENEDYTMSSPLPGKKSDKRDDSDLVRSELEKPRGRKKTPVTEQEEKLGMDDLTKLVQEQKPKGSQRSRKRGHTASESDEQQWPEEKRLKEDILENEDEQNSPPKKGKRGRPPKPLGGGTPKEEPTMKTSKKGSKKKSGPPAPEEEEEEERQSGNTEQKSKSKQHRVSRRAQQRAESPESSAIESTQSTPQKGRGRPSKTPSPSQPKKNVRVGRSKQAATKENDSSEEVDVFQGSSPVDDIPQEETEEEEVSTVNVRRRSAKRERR
UniProt Q15102: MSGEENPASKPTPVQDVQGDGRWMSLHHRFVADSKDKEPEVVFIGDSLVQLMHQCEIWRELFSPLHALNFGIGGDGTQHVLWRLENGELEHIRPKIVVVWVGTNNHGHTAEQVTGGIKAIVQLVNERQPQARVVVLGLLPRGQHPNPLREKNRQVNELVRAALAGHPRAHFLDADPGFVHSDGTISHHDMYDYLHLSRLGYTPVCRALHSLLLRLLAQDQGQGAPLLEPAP
UniProt Q92968: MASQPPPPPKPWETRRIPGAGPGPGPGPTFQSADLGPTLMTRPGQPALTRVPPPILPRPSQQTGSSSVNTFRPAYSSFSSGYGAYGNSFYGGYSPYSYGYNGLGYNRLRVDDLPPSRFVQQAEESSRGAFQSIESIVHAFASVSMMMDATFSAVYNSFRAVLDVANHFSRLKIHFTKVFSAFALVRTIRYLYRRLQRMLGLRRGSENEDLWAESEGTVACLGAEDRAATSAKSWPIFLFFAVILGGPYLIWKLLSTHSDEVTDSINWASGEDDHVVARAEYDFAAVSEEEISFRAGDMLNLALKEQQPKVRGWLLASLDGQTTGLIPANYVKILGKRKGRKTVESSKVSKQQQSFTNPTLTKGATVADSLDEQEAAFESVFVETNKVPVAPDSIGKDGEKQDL
UniProt O95613: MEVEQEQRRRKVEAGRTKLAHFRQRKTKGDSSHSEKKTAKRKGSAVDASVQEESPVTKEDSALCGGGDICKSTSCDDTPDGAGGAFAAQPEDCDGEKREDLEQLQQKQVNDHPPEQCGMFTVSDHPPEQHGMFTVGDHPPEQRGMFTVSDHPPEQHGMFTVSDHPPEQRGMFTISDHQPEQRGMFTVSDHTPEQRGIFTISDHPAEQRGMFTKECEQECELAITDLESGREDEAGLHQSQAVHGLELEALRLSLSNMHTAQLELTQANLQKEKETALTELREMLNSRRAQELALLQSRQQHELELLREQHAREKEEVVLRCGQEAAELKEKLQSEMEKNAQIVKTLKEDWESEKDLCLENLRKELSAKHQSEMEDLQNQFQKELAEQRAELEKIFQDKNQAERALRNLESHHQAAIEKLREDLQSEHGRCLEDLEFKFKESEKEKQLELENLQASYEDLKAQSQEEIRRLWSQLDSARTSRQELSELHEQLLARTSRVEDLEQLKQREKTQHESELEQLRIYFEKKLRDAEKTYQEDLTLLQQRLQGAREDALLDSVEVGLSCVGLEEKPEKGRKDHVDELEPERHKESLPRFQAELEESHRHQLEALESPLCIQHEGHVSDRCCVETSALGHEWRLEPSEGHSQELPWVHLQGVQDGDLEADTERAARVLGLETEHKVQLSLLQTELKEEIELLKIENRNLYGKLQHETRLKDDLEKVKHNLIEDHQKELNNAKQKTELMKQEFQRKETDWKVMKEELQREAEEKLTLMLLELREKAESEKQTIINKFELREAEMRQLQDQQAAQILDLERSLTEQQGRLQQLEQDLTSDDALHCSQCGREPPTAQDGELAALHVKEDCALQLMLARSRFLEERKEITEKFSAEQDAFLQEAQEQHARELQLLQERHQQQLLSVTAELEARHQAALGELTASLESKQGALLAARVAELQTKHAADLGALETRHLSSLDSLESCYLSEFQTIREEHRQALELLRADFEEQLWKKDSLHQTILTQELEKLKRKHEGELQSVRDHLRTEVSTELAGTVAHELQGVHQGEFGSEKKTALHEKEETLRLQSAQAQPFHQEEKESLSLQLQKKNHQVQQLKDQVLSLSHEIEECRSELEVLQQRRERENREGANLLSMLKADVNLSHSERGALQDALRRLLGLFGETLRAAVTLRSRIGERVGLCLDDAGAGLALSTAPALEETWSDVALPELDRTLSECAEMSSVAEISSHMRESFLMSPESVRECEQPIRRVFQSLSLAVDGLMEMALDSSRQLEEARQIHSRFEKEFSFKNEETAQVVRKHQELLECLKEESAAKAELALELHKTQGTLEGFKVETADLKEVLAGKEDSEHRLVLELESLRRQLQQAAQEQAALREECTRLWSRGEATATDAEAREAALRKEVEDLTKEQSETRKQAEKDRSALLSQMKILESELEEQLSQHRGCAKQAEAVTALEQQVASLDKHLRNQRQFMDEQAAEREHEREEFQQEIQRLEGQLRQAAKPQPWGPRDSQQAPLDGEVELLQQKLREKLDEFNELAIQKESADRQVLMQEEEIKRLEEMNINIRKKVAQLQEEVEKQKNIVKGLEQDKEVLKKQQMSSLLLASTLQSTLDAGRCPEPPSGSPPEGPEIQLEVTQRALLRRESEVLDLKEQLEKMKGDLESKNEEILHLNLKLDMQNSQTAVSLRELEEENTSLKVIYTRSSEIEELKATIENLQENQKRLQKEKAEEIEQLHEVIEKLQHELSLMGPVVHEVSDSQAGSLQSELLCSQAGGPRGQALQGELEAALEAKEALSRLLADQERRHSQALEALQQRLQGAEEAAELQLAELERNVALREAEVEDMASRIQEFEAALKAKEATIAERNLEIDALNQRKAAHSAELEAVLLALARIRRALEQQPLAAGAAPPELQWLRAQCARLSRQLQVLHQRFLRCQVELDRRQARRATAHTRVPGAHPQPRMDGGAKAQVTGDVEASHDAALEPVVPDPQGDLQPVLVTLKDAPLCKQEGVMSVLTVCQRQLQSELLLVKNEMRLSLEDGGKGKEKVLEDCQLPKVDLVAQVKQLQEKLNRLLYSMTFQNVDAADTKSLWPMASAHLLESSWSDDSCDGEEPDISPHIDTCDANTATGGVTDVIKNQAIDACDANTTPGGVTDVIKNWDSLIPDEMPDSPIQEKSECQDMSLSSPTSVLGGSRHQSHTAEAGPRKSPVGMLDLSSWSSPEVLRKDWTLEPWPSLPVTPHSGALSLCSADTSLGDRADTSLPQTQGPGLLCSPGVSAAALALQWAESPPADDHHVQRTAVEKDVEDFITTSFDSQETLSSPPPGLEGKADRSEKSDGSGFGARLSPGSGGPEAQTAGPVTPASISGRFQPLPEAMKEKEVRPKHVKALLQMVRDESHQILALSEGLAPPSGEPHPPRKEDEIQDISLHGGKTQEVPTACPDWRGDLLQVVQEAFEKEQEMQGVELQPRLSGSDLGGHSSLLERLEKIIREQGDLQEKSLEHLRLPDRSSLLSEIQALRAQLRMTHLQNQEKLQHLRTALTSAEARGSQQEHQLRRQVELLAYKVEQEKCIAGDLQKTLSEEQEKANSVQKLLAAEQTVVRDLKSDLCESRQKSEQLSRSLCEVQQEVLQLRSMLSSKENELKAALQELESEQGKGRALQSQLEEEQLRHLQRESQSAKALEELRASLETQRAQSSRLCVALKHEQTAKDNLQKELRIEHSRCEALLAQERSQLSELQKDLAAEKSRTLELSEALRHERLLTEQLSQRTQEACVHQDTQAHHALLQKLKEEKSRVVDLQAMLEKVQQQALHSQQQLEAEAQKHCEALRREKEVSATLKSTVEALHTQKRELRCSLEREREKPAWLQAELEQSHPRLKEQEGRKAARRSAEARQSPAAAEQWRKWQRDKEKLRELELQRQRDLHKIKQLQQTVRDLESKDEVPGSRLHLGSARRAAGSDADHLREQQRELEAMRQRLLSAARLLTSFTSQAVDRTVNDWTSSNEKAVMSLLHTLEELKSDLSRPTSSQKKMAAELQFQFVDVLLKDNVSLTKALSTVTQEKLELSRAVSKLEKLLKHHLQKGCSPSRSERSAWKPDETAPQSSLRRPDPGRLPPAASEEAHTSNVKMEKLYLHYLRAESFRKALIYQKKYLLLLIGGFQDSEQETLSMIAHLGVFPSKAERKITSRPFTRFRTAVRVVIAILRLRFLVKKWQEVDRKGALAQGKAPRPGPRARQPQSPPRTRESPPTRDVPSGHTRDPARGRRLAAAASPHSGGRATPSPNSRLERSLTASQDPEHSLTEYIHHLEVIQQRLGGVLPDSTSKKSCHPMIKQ

ibrutinib = compound: C=CC(=O)N1CCC[C@@H](n2nc(-c3ccc(Oc4ccccc4)cc3)c3c(N)ncnc32)C1 [ibrutinib]
In short: as §1

[1] = compound: CC(=O)c1cnc2ccc(-c3cc(Cl)c(O)c(Cl)c3)nc2c1N[C@H]1CC[C@H](CN(C)C)CC1
In short: as §1

ralimetinib = compound: CC(C)(C)Cn1c(N)nc2ccc(-c3[nH]c(C(C)(C)C)nc3-c3ccc(F)cc3)nc21 [ralimetinib]
In short: as §1

[2] = compound: CC(C)(O)CC(=O)NCCn1ccc2ncnc(Nc3ccc(Oc4cccc(C(F)(F)F)c4)c(Cl)c3)c21
In short: as §1

[3] = compound: CC(C)C1=C2N=C(C=C(N2N=C1)NCC3=CC=CC=C3)NCCCCCCN
In short: as §1

[4] = compound: CC(C)C[C@@H](C=O)NC(=O)[C@H](CC(C)C)NC(=O)[C@H](CC(C)C)NC(=O)OCc1ccccc1
In short: as §1

pinometostat = compound: CC(C)N(C[C@H]1O[C@@H](n2cnc3c(N)ncnc32)[C@H](O)[C@@H]1O)[C@H]1C[C@@H](CCc2nc3cc(C(C)(C)C)ccc3[nH]2)C1 [pinometostat]
In short: as §1

[5] = compound: CC1=C(C2=C(C=C1)C(=O)C3=CC=CC=C3N2CCCN)C
In short: as §1

Measured: log2 fold change

PARN (UniProt O95453)
inactive: IRAK-1-4 Inhibitor I 0.002 | ibrutinib -0.047 | [1] -0.092 | ralimetinib -0.013 | [2] -0.02 | [3] -0.025 | [4] 0.018 | pinometostat -0.018 | [5] 0.033

PC (UniProt P11498)
inactive: IRAK-1-4 Inhibitor I -0.024 | ibrutinib 0.04 | [1] -0.151 | ralimetinib -0.02 | [2] -0.038 | [3] 0.183 | [4] -0.037 | pinometostat -0.016 | [5] 0.15

PDCD4 (UniProt Q53EL6)
inactive: IRAK-1-4 Inhibitor I -0.043 | ibrutinib -0.05 | [1] 0.271 | ralimetinib -0.042 | [2] -0.091 | [3] -0.194 | [4] -0.015 | pinometostat -0.046 | [5] -0.17

PBX2 (UniProt P40425)
inactive: IRAK-1-4 Inhibitor I -0.078 | ibrutinib 0.023 | [1] -0.122 | ralimetinib 0.04 | [2] -0.145 | [3] -0.184 | [4] 0.078 | pinometostat -0.058 | [5] -0.005

PDLIM7 (UniProt Q9NR12)
inactive: IRAK-1-4 Inhibitor I 0.017 | ibrutinib 0.005 | [1] -0.054 | ralimetinib 0.08 | [2] -0.035 | [3] 0.024 | [4] -0.045 | pinometostat -0.019 | [5] 0.065

PDIK1L (UniProt Q8N165)
inactive: IRAK-1-4 Inhibitor I -0.006 | ibrutinib -0.205 | ralimetinib -0.173 | [2] 0.032 | [3] -0.139 | [4] 0.091 | pinometostat -0.012 | [5] -0.197
active: [1] -0.693

PDCD2L (UniProt Q9BRP1)
inactive: IRAK-1-4 Inhibitor I -0.034 | ibrutinib -0.006 | [1] 0.07 | ralimetinib 0.047 | [2] -0.115 | [3] 0.078 | [4] 0.042 | pinometostat 0.007 | [5] 0.041

PECAM1 (UniProt P16284)
active: [5] 0.261
inactive: IRAK-1-4 Inhibitor I 0.021 | ibrutinib 0.004 | [1] -0.031 | ralimetinib -0.002 | [2] -0.082 | [3] 0.141 | [4] -0.057 | pinometostat 0.012

PCYT1B (UniProt Q9Y5K3)
inactive: IRAK-1-4 Inhibitor I 0.014 | ibrutinib -0.029 | [1] -0.072 | ralimetinib 0.011 | [2] 0.001 | [3] -0.172 | [4] 0.027 | pinometostat -0.011 | [5] -0.12

PDE4A (UniProt P27815)
inactive: IRAK-1-4 Inhibitor I 0 | ibrutinib 0.249 | [1] 0.077 | ralimetinib -0.056 | [2] 0.106 | [3] 0.029 | [4] 0.04 | pinometostat 0.019 | [5] -0.077

PARG (UniProt Q86W56)
active: [5] 0.331
inactive: IRAK-1-4 Inhibitor I -0.047 | ibrutinib -0.022 | [1] -0.124 | ralimetinib 0.045 | [2] -0.075 | [3] -0.203 | [4] 0.043 | pinometostat 0.059

PACS1 (UniProt Q6VY07)
inactive: IRAK-1-4 Inhibitor I -0.002 | ibrutinib -0.016 | ralimetinib -0.024 | [2] -0.014 | [3] -0.011 | [4] 0 | pinometostat -0.029 | [5] -0.007
active: [1] -0.297

PDS5B (UniProt Q9NTI5)
inactive: IRAK-1-4 Inhibitor I -0.184 | ibrutinib -0.102 | [1] -0.052 | ralimetinib -0.01 | [2] -0.093 | [3] -0.166 | [4] 0.124 | pinometostat 0.093 | [5] 0.02

PEA15 isoform 2 (UniProt Q15121)
inactive: IRAK-1-4 Inhibitor I 0.025 | ibrutinib -0.024 | [1] 0.054 | ralimetinib 0.007 | [2] -0.079 | [3] -0.045 | [4] -0.046 | pinometostat -0.004 | [5] 0.038

PCLAF (UniProt Q15004)
inactive: IRAK-1-4 Inhibitor I 0.055 | ibrutinib 0.034 | [1] -0.061 | ralimetinib -0.012 | [2] 0.036 | [3] 0.184 | pinometostat -0.012 | [5] -0.088
active: [4] 0.278

PDPK1 (UniProt O15530)
active: [1] -0.346
inactive: IRAK-1-4 Inhibitor I 0.019 | ibrutinib -0.043 | ralimetinib -0.067 | [2] -0.087 | [3] -0.134 | [4] 0.015 | pinometostat 0.001 | [5] 0.027

PAFAH1B3 (UniProt Q15102)
active: [5] 0.305
inactive: IRAK-1-4 Inhibitor I -0.041 | ibrutinib 0.008 | [1] -0.119 | ralimetinib 0.009 | [2] -0.137 | [3] -0.055 | [4] -0.078 | pinometostat 0.023

PCGF2 (UniProt P35227)
inactive: IRAK-1-4 Inhibitor I -0.077 | ibrutinib -0.101 | [1] -0.164 | ralimetinib -0.036 | [2] 0 | [3] -0.095 | [4] 0.065 | pinometostat -0.075 | [5] 0.107

PARL (UniProt Q9H300)
active: [3] -0.233
inactive: IRAK-1-4 Inhibitor I 0.019 | ibrutinib 0.007 | [1] 0.003 | ralimetinib -0.022 | [2] -0.003 | [4] 0.005 | pinometostat -0.006 | [5] 0.017

PCK2 (UniProt Q16822)
inactive: IRAK-1-4 Inhibitor I -0.029 | ibrutinib 0.021 | [1] -0.013 | ralimetinib -0.059 | [2] -0.019 | [3] 0.063 | [4] 0.035 | pinometostat -0.011 | [5] 0.053

PCYT1A (UniProt P49585)
inactive: IRAK-1-4 Inhibitor I 0.081 | ibrutinib -0.032 | [1] -0.007 | ralimetinib -0.072 | [2] -0.019 | [3] -0.163 | [4] 0.084 | pinometostat -0.005 | [5] -0.137

PDE2A (UniProt O00408)
inactive: IRAK-1-4 Inhibitor I 0.083 | ibrutinib 0.026 | [1] -0.001 | ralimetinib 0.12 | [2] -0.082 | [3] 0.014 | [4] -0.009 | pinometostat -0.007 | [5] 0.043

PAK1 isoform 2 (UniProt Q13153)
inactive: IRAK-1-4 Inhibitor I 0.018 | ibrutinib 0.048 | [1] 0.158 | ralimetinib -0.066 | [2] -0.025 | [3] 0 | [4] -0.046 | pinometostat -0.038 | [5] 0.051

PAFAH1B2 (UniProt P68402)
inactive: IRAK-1-4 Inhibitor I 0.013 | ibrutinib 0.017 | [1] -0.016 | ralimetinib 0.038 | [3] 0.012 | [4] -0.033 | pinometostat 0.016 | [5] 0.005
active: [2] -0.436

PAFAH2 (UniProt Q99487)
inactive: IRAK-1-4 Inhibitor I 0.106 | ibrutinib 0.048 | [1] -0.012 | ralimetinib -0.033 | [3] 0.025 | [4] 0.007 | pinometostat -0.011 | [5] 0.02

PEX13 (UniProt Q92968)
inactive: IRAK-1-4 Inhibitor I 0.053 | ibrutinib -0.067 | [1] -0.011 | ralimetinib 0.062 | [2] -0.193 | [3] -0.201 | [4] 0.036 | pinometostat -0.032 | [5] 0.024

PATL1 (UniProt Q86TB9)
inactive: IRAK-1-4 Inhibitor I -0.026 | ibrutinib -0.173 | [1] -0.312 | ralimetinib 0.079 | [2] -0.024 | [3] -0.298 | [4] 0.033 | pinometostat 0.143 | [5] 0.038

PCBP2 isoform 3 (UniProt Q15366)
inactive: IRAK-1-4 Inhibitor I -0.065 | ibrutinib -0.048 | [1] -0.056 | ralimetinib 0.017 | [2] -0.067 | [3] -0.211 | [4] -0.029 | pinometostat -0.049 | [5] 0.025

PCBP1 (UniProt Q15365)
inactive: IRAK-1-4 Inhibitor I 0 | ibrutinib -0.017 | [1] -0.005 | ralimetinib 0.058 | [2] -0.058 | [3] -0.118 | [4] -0.006 | pinometostat -0.003 | [5] 0.039

PCNT (UniProt O95613)
inactive: IRAK-1-4 Inhibitor I 0.085 | ibrutinib -0.078 | [1] -0.079 | ralimetinib -0.113 | [2] -0.021 | [3] 0.053 | [4] 0.229 | pinometostat 0.069 | [5] -0.018

PDS5A (UniProt Q29RF7)
inactive: IRAK-1-4 Inhibitor I -0.168 | ibrutinib -0.041 | [1] -0.063 | ralimetinib -0.012 | [2] -0.344 | [3] -0.61 | [4] 0.272 | pinometostat 0.045 | [5] -0.103

PCNX3 (UniProt Q9H6A9)
inactive: [3] -0.044
